# Where “and” joins values, the source holds several entries; their conditions need not be identical. Equal values may be shown once. In all, about 390,000 compounds went through this assay and about 820 (0.21%) were called active. Inconclusive results, whose numbers are uncertain, are shown with a selection of clear calls. The call rests on the fitted dose curve; in most records, active means well fitted inhibition curve with a large enough effect; inconclusive means small, poorly fitted or top-dose-only effect, or another doubt; inactive means no such curve, though single readings can be large or run the other way. A potency beside an inconclusive call is a rough fit, not a confirmed value.
# Sequences of proteins named here, by UniProt entry; tags and fusion partners are left off.
# UniProt Q92830, whole entry, looked up: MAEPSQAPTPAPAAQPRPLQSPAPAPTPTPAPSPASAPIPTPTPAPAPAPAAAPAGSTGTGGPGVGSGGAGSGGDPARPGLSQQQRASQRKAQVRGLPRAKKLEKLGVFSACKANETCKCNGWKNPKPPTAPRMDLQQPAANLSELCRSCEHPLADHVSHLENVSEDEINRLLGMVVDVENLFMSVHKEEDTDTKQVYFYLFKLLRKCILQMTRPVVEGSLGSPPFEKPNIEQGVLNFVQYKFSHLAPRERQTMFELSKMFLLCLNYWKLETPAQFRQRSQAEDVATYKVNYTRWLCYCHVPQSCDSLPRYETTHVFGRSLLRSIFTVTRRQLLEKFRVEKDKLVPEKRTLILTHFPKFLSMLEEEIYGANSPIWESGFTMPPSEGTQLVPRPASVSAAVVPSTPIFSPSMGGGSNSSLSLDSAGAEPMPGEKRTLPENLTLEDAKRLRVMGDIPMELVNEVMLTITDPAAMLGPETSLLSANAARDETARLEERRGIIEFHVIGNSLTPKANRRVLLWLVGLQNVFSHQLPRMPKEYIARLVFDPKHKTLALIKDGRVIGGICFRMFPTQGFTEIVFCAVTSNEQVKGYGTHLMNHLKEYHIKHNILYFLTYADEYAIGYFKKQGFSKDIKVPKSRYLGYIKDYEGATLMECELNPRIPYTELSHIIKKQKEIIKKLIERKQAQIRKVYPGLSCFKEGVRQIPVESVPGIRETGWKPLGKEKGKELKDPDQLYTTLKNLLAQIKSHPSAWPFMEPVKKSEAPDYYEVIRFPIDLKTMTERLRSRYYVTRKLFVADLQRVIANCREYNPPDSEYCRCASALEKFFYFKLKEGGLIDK
# Target: Histone acetyltransferase KAT2A (Homo sapiens) (UniProt Q92830)
# Experiment: qHTS Assay for Inhibitors of GCN5L2
# Settings: GCN5L2 HAT assay, ThioGlo1 CoA-SH fluorescence; series mostly up to 58.9 µM
# Method in brief: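 GCN5L2 (20nM final) in 50mM HEPES, 0.1mM EDTA pH 7.5, 0.01% Tween-20 was preincubated 15 min at room temperature with compound, then given ThioGlo1 (50uM), H3(1-25) peptide (75uM) and acetyl-CoA (70uM); CoA-thiol fluorescence (Ex340/Em540) was read at 0 and 20 min.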
# Potency means the concentration at half of the fitted maximal effect.
row,SMILES,Potency
1,Cc1ccc2[nH]c3c(=O)[nH]ncc3c2c1,"inconclusive: 0.891 µM [inhibitor, single point]"
2,COc1ccccc1C1CC(c2ccco2)=NN1c1ccccc1 (configuration not stated),"inconclusive: 17.8 µM [inhibitor, partial curve]"
3,N=c1c(C(=O)NCc2ccc(F)cc2)cc2c(=O)n3ccccc3nc2n1CC1CCCO1 (configuration not stated),"inconclusive: 8.91 µM [inhibitor, single point]"
4,O=C(Cc1ccc(Cl)cc1Cl)Nc1cccc(S(=O)(=O)Nc2ccccc2F)c1,"inconclusive: 14.1 µM [inhibitor, partial curve]"
5,Cc1ccccc1-n1nc(C(=O)c2cccs2)cc(-c2nc3ccccc3[nH]2)c1=N,inactive
6,CCOc1ccc(C(=O)Nc2nc(C)c(C(=O)OC)s2)cc1,"inconclusive: 44.7 µM [inhibitor, single point]"
7,CCCCNc1c(-c2ccc(OC)c(SC3CCCCC3)c2)nc2cc(C)ccn12,"inconclusive: 17.8 µM [inhibitor, partial curve]"
8,COc1cc(OC)cc(-c2c(C#Cc3ccsc3)c3cc(-c4ccc5cc[nH]c5c4)ccc3n2C)c1,"inconclusive: 28.2 µM [inhibitor, partial curve]"
9,CC1=CC(=C2C(=O)c3ccccc3C2=O)C=C(C)N1C,"inconclusive: 8.91 µM [inhibitor, single point]"
10,CCOc1ccc(NS(=O)(=O)c2ccc3c(c2)n(C)c(=O)n3C)cc1,"inconclusive: 0.112 µM [inhibitor, full curve, poor fit]"
11,O=C(CSc1nnc(-c2cc3ccccc3cc2O)n1Cc1ccco1)N1CCc2ccccc2C1,inactive
12,Cc1cc(C)nc(N2CCN(c3nnnn3-c3ccccc3)CC2)n1,"inconclusive: 15.8 µM [inhibitor, partial curve]"
13,COCCN1CCN(C(=O)c2cc(COc3ccc(F)cc3F)on2)CC1,"inconclusive: 0.447 µM [inhibitor, full curve, poor fit]"
14,COc1ccccc1NC(=O)COC(=O)c1c(C)nn(-c2ccccc2)c1C,inactive
15,CCCc1ccc(OCCNC(=O)c2ccco2)cc1,"inconclusive: 25.1 µM [inhibitor, single point]"
16,COc1cc(C(=O)NC(=S)Nc2cccc(-c3cc4ccccc4oc3=O)c2)cc(OC)c1OC,"inconclusive: 6.31 µM [inhibitor, single point]"
17,CCOC(=O)N1CCC(NC(=O)c2ccc3c(c2)N(Cc2ccc(F)cc2)CCS3)CC1,"inconclusive: 31.6 µM [inhibitor, single point]"
18,O=C(Nc1cccc(C(=O)N2CCN(c3cccc(Cl)c3)CC2)c1)c1nsc2ccccc12,inactive
19,Cc1cccc(OCC(=O)N/N=C/C=C/c2ccco2)c1,"inconclusive: 28.2 µM [inhibitor, single point]"
20,CCCS(=O)(=O)N1CCN(C(=O)c2cccnc2)CC1,"inconclusive: 0.355 µM [inhibitor, partial curve, poor fit]"
21,CCn1cc(CN2CCC(C(=O)Nc3ccc(Oc4ccccc4)nc3)CC2)cn1,"inconclusive: 0.708 µM [inhibitor, full curve, poor fit]"

# 3 records drawn at random from those above, as already listed:
row,SMILES,Potency
18,O=C(Nc1cccc(C(=O)N2CCN(c3cccc(Cl)c3)CC2)c1)c1nsc2ccccc12,inactive
20,CCCS(=O)(=O)N1CCN(C(=O)c2cccnc2)CC1,"inconclusive: 0.355 µM [inhibitor, partial curve, poor fit]"
11,O=C(CSc1nnc(-c2cc3ccccc3cc2O)n1Cc1ccco1)N1CCc2ccccc2C1,inactive

# Additional compounds.

row,SMILES,Potency
1,Nc1ccc(-c2nnc(-c3ccccc3)o2)cc1,"inconclusive: 3.98 µM [inhibitor, single point]"
2,COc1ccccc1C1=NN(C(=S)Nc2ccccc2)C(c2ccco2)C1 (configuration not stated),"inconclusive: 0.794 µM [inhibitor, single point]"
3,Cc1[nH]c2ccc3ncccc3c2c1C,inactive
4,CC(=O)c1cc2c(cc1NC(=O)C1CC1)OCO2,inactive
5,Cc1c(C)c2cc(Cl)c(O)c(CN3CCCC(C)C3)c2oc1=O (configuration not stated),"inconclusive: 35.5 µM [inhibitor, single point]"
6,CC1CN(c2ccc([N+](=O)[O-])cn2)CC(C)O1 (configuration not stated),"inconclusive: 39.8 µM [inhibitor, single point]"
7,O=C(Nc1cccc2ccccc12)/C(=C/c1ccc([N+](=O)[O-])cc1)NC(=O)c1ccccc1,"inconclusive: 39.8 µM [inhibitor, single point]"
8,NC(=O)CC(NC(=O)c1ccccc1)c1ccc(N2CCCCCC2)c([N+](=O)[O-])c1 (configuration not stated),"inconclusive: 1.58 µM [inhibitor, full curve, poor fit]"
9,O=S(=O)(O)CC(S)CS (configuration not stated),inactive
10,CCC(=O)C1=C(c2ccc(OC)c(OC)c2)N(C(=O)CC)n2c(CC)nnc2S1,inactive
11,CCOc1ccc(C(=O)Nc2ccc(NC(=O)c3ccccc3)c(C)c2)cc1[N+](=O)[O-],"inconclusive: 0.631 µM [inhibitor, partial curve, poor fit]"
12,CC1Cc2ccccc2N1c1nc(C2CC2)nc2c1nnn2Cc1ccccc1 (configuration not stated),"inconclusive: 39.8 µM [inhibitor, single point]"
13,Cc1ccc(C(=O)Nc2cccc(Oc3ccccc3)c2)o1,"inconclusive: 31.6 µM [inhibitor, single point]"
14,COc1ccc(NC(=O)CSc2nnc(NC(=O)c3ccccc3C(=O)O)s2)cc1,inactive
15,O=C(c1ccccc1NS(=O)(=O)c1ccc(Br)s1)N1CCOCC1,"inconclusive: 0.891 µM [inhibitor, single point]"
16,CCN(CCCC(=O)c1ccc(F)cc1)CCc1ccccc1,inactive
17,C[C@H]1C(c2ccc(F)cc2)=NN(c2ccccc2)[C@@H]1CO,"inconclusive: 35.5 µM [inhibitor, partial curve] and inconclusive: 28.2 µM [inhibitor, single point]"
18,Nc1c(C(=O)O)sc2nc(-c3ccccc3)cc(-c3ccc(F)cc3)c12,"inconclusive: 28.2 µM [inhibitor, partial curve, poor fit]"
19,CCc1cc(=S)n2c([nH]c3ccccc32)c1C#N,active: 28.2 µM
20,CC(C)NC(=O)N(O)C1N(C(C)C)C(=O)N(Cc2ccc3c(c2)OCO3)C1(C)C (configuration not stated),"inconclusive: 0.112 µM [inhibitor, full curve, poor fit]"
21,Clc1ccc(N2CCN(Cc3cc4ccccn4n3)CC2)cc1,"inconclusive: 7.08 µM [inhibitor, single point]"
